Results: article PMC8497785, “Structural Characterization of the RNA-Binding Protein SERBP1 Reveals Intrinsic Disorder and Atypical RNA Binding Modes”
No constants are given. Whether binding was seen depends on the method and setting.

Legend:
SERBP1 189-400 [1] = molecular target: T1, SERBP1 189-400 (Homo sapiens, UniProt Q8NC51 189-400); assay: dynamic light scattering; 125 µM in 20 mM Na2HPO4 pH 7.0, 60 mM NaCl; without and with 2 M GdnHCl; 20°C; hydrodynamic radius compared with the value calculated for a disordered monomer; both purified
T1 sequence: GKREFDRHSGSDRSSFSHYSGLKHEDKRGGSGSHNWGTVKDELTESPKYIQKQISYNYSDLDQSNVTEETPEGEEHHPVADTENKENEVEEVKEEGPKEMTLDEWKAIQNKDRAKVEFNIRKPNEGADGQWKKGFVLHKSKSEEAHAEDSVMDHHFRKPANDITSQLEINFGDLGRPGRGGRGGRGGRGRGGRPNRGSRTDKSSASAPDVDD

SERBP1 189-400 [2] = molecular target: T1, SERBP1 189-400; assay: AUC; sedimentation velocity; 25 µM in 20 mM Na2HPO4 pH 7.0, 60 mM NaCl; without and with 2 M GdnHCl; 40000 rpm, 20°C; continuous c(s) model in SEDFIT; both purified
SERBP1 189-400 [3] = molecular target: T1, SERBP1 189-400; assay: SEC; Superdex 200 10 x 300 mm; 200 µL of a 15 µM sample; 20 mM Na2HPO4 pH 6.9, 60 mM NaCl, 1 mM PMSF, 0.2 mM EDTA; without and with 2 M GdnHCl; oligomeric state of the protein alone; both purified

- binding (SERBP1 189-400 [1]): no binding (tested: 125 µM)
- binding (SERBP1 189-400 [2]): no binding (tested: 25 µM)
- binding (SERBP1 189-400 [3]): no binding (tested: 15 µM)
B1: SERBP1 189–400 (domain or fragment, UniProt Q8NC51-1 189-400)
chain: T1 sequence
